The results in this text go back to US12023336B2, “Antiviral drug compounds and composition thereof” (priority 2018, dated 2024).

For the test, the system named is HIV-1NL4.3. Type of test: cell-based. The procedure:
TZM-bl cells were seeded at the density of 12,000-15,000 cells/well of 96 well plate with 100 μL DMEM (with 10% FBS) in each well. 12-hours post seeding, the media was replaced with fresh DMEM containing HTV-1NL4.3 at 0.1 MOI and cells were treated with different molecules independently at 10 μM working concentration. Cells were incubated in humidified CO2 incubator for 4-hours. After incubation, the media was replaced and cells were washed twice with incomplete DMEM and 100 μL of complete DMEM was added in each wells along with the molecules of interest and incubated at 37° C. in humidified CO2 incubator. 48-hours post incubation, the media was removed and cells were washed twice with 100 μL of 1×PBS. After washing, cells were lysed using cell culture lysis reagent and Steady-Glo substrate was added at 1:1 ration in each well. Luminescence was measured using Molecular Devices M5 (Table 2). % Inhibition was calculated using following formula and plotted.
[formula] (RLU=Relative Luminescence Unit)

For orientation: % Inhibition means the share of the control response that was lost under treatment. The low end stands for little suppression, the high end for strong suppression.

Consider `O=C1NC(=O)c2c1c(-c1ccccc1)cc1[nH]c3ccc(O)cc3c21` [PD-407824], for which the “% Inhibition at 10 μM Concentration” value is given as 99.78%.
